Results from article PMC1849891.
Results are given in words; binding and its absence hold for the method and conditions named. Some results given as binding are weak or reduced against the parent protein; the word gives no strength.

Chains of the proteins cited; added tags and fusions are not shown.
UniProt Q9US25: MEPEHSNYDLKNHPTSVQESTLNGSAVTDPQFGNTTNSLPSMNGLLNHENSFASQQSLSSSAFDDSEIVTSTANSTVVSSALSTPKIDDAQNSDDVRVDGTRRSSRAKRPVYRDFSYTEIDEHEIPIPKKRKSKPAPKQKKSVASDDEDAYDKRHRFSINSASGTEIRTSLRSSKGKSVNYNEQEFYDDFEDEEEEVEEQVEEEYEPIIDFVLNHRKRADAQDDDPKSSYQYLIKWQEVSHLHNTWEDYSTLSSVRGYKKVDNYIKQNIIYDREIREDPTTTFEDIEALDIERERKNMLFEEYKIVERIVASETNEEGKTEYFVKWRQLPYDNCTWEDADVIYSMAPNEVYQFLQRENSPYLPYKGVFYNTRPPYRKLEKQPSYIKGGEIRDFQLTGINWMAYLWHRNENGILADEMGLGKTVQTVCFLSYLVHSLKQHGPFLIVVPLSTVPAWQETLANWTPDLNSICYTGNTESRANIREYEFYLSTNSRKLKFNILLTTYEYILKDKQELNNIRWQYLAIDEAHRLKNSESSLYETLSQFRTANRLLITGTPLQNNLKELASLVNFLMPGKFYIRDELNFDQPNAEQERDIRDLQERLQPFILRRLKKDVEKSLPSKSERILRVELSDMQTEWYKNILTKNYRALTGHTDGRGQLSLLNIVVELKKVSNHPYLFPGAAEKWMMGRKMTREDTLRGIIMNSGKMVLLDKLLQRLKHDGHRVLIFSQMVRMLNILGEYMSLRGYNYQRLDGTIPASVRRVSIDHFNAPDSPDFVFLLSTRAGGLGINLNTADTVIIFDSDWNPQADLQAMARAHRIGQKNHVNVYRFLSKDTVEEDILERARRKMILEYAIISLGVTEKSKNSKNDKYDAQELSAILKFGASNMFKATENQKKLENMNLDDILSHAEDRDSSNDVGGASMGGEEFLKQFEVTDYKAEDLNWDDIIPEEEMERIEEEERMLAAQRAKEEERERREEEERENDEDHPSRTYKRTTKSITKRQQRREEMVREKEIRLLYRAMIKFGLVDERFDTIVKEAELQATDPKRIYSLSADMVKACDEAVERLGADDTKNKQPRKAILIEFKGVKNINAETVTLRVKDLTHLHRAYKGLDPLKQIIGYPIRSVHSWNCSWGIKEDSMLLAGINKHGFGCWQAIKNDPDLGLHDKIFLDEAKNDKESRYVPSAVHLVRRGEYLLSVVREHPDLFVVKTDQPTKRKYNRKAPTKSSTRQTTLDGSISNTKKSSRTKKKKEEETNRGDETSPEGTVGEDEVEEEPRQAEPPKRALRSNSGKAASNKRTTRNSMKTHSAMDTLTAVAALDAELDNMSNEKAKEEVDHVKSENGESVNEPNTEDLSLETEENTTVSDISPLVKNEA
UniProt O14139: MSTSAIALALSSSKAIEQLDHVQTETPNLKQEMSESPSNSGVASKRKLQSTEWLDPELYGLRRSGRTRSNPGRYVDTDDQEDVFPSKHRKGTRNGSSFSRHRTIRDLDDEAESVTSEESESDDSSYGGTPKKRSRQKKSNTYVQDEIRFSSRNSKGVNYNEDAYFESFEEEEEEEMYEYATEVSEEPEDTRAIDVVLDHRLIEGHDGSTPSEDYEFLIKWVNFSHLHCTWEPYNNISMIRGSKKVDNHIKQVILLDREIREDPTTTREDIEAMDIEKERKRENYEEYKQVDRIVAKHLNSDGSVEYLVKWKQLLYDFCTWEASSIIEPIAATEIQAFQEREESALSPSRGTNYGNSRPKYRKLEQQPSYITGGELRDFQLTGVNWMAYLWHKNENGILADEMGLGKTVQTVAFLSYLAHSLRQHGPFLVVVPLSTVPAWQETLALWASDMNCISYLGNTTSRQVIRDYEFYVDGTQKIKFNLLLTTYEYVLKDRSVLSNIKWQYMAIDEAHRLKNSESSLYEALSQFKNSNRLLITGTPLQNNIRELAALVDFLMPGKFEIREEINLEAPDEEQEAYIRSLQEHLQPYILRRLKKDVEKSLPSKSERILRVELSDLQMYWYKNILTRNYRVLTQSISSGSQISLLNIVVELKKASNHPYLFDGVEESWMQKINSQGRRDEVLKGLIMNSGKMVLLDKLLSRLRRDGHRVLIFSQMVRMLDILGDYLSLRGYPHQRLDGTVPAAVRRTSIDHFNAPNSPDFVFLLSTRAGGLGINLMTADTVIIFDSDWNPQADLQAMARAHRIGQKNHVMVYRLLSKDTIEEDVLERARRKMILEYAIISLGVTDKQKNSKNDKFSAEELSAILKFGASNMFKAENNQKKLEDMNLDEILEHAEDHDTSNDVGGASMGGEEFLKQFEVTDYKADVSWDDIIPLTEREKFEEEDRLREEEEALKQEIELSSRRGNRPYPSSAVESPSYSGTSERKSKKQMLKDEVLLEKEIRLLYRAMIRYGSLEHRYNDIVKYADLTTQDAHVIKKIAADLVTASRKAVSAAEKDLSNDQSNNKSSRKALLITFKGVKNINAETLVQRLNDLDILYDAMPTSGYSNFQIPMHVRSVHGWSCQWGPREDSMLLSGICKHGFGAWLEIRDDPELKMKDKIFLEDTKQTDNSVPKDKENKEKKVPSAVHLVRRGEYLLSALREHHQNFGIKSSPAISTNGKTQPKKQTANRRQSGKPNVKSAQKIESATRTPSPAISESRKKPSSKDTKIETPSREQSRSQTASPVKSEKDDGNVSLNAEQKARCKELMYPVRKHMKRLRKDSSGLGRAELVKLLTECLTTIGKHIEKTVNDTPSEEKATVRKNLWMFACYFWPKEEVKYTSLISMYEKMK

Molecular target: Hrp1 (affinity purification experiments with Hrp3) (S. pombe) (UniProt Q9US25)
Assay: affinity purification (co-purification); preliminary experiments; manuscript in preparation; no details given

binding: binds
Substance: Hrp3 (from UniProt O14139 1-1388)
